At least one structure is not confirmed: it was looked up by name or label, or the drawing left a doubt.
Test system: ABCF1
Assay: Effect of psylocibin, psylocin and analogs on ABCF1 transcription in RAW264.7, qPCR
Format: cell-based
Details: RAW264.7, 10 nM, 100 nM, 500 nM, normalized against GAPDH (FIG. 2)
Procedure: FIG. 2—illustrates the effect of psylocibin, psylocin and their analogs on ABCF1 transcription in a macrophage cell line. Briefly, the Macrophage cell line RAW264.7 (ATCC) were grown to 80% confluency in growth media (DMEM+ 10% FBS+ glutamine). Dilutions of psylocibin, psylocin and their analogs were made at desired final concentrations for a Dose response experiment. The concentrations' used for this experiment are: 10 nM, 100 nM, 500 nM for Psilocin, Psylocibin, 4-Acetoxy-N, N-dimthyltryptamine, O-Acetyl Psilocin Fumerate, and 4-acetoxyindole. The cells were incubated for 2 hours and then harvested for total RNA, which was extracted for real time RT-PCR specific for ABCF1. Untreated cells were used as negative control and Escitalopram at 0.3 mM was used as a positive control to activate ABCF1 expression for all the experiments. ES=escitalopram; PSYB=Psylocibin; PSIC=Psilocin; DMT=4-Acetoxy-N, N-dimthyltryptamine; APF=O-Acetyl Psilocin Fumerate, and AOI=4-acetoxyindole.
Preparation of Cells: • 1. Macrophage cell line RAW264.7 (ATCC) were grown to 80% confluency in growth media (DMEM+10% FBS+glutamine). • 2. Dilutions of the drugs were made at desired final concentrations for a Dose response experiment. […]
• 1. […] Normalized against the expression level of GAPDH, the fold change expression level of ABCF1 was calculated and tabulated for all treatment conditions.

## CN(C)CCc1c[nH]c2cccc(OP(=O)(O)O)c12 [psylocibin, [3-(2-Dimethylaminoethyl)-1H-indol-4-yl] dihydrogen phosphate]
  ABCF1 transcription (in words): upregulate ABCF1 transcription
